Experimental findings from PMC11092326 are described below.

Amino acid sequences for entries named in this document (tags omitted).
UniProt P35579: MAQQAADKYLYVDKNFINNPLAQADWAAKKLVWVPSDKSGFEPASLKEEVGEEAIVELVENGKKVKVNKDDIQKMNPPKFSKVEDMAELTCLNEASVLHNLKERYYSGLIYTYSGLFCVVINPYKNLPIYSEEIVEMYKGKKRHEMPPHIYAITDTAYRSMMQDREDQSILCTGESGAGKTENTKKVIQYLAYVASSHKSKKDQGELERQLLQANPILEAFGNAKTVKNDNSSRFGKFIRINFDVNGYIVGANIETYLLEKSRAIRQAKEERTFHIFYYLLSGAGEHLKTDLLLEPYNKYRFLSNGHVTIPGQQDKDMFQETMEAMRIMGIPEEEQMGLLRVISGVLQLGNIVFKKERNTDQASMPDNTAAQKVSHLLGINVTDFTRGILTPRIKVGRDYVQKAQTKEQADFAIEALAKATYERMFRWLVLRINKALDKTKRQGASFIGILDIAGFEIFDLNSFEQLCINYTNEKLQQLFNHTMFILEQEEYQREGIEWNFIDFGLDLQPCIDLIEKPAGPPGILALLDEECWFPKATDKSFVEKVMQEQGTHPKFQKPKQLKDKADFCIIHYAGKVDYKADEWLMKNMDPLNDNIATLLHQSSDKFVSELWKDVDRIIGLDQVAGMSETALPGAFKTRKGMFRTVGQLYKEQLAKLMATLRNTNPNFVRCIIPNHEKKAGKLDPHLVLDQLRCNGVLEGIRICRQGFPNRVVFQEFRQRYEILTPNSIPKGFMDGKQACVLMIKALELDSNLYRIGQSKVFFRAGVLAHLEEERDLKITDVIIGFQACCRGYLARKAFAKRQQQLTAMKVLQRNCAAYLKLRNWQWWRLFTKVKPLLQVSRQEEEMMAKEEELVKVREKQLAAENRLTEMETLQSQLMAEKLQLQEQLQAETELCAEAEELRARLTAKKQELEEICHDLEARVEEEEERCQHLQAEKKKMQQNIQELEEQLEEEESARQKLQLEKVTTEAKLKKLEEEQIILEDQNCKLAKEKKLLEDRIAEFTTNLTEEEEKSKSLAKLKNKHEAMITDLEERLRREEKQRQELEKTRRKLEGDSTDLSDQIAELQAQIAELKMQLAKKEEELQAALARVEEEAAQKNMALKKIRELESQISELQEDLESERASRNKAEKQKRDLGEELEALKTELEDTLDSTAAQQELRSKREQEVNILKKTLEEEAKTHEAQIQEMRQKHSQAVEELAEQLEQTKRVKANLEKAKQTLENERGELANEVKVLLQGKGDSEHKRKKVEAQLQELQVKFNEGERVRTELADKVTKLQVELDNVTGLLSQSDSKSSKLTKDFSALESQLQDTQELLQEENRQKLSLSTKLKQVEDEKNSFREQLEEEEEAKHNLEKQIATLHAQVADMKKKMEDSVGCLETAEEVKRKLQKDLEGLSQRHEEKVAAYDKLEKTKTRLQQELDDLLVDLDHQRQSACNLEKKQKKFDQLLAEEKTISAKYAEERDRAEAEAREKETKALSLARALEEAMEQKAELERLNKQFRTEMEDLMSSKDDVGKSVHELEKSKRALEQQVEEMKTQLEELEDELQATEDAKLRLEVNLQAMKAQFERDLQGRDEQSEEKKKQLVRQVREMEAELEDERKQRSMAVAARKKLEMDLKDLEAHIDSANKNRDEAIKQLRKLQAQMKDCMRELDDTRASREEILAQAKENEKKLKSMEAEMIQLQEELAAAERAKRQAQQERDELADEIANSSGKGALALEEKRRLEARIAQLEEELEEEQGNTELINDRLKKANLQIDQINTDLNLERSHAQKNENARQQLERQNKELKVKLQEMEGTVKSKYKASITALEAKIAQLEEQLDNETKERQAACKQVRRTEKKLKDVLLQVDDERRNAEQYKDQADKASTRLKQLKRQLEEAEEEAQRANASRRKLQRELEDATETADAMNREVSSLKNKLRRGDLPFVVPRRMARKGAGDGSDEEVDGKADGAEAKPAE
UniProt P09874: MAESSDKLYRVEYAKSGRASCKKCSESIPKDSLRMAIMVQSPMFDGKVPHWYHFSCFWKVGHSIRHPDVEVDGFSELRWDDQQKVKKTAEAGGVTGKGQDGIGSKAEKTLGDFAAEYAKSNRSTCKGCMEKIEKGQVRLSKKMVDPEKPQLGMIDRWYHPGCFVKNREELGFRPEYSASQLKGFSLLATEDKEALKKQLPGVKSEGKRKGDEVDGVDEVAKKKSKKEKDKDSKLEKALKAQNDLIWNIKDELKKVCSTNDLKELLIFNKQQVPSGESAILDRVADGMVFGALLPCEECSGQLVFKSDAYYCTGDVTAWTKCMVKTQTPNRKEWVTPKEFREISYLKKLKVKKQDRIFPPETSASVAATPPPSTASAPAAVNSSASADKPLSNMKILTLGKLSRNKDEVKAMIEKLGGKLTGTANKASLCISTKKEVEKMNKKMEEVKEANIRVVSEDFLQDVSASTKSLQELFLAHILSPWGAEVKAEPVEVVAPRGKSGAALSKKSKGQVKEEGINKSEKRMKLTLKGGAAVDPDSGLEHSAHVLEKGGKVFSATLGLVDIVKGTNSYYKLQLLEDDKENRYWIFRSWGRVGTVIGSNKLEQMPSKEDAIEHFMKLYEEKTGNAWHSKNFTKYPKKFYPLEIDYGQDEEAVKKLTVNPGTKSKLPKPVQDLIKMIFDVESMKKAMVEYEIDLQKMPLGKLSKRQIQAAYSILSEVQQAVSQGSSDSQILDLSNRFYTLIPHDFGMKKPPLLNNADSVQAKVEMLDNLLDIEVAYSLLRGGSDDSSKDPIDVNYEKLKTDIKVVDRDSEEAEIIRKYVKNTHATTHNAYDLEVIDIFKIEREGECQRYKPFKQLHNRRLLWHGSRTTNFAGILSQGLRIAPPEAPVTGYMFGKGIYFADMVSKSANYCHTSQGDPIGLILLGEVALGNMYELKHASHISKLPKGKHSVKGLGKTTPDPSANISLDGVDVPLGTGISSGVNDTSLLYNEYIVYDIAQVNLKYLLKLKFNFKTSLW
UniProt Q8N884: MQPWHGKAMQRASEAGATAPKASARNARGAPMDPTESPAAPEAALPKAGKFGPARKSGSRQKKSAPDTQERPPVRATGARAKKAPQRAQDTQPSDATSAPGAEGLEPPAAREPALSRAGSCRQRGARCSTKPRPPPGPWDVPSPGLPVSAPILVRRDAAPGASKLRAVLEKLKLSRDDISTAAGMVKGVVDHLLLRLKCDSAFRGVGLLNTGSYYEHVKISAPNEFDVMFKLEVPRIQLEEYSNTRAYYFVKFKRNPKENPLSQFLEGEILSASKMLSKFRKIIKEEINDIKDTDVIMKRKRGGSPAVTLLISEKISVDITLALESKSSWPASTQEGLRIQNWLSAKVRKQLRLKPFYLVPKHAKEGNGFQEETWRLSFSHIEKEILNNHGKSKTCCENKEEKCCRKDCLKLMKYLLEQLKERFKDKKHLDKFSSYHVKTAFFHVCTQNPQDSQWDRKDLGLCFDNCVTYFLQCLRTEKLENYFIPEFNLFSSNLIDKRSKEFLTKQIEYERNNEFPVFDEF

These are yes or no findings as the source states them, for the method shown. Binding seen in cells or lysates may run through a third protein. Some results given as binding are weak or reduced against the parent protein; the word gives no strength.

The target in experiment [1] is non-muscle myosin heavy chain IIA (endogenous, HEK-293T) (human (endogenous in HEK-293T)) (UniProt P35579). Nature of the experiment: co-IP.
In experiment [2] the target is non-muscle myosin heavy chain IIA fused with Flag tag (not stated (human or pig cDNA cloned)) (UniProt P35579). As to the kind of experiment: co-IP.

Turning to “human poly (ADP-ribose) polymerase 1 fused with HA tag (from UniProt P09874 1-1014)”, the binding entry in experiment [1] is “binds”.
For “human cyclic GMP-AMP synthase fused with HA tag (from UniProt Q8N884 1-522)”, in experiment [2], the binding entry is “binds”.
